In patent US20210084900A1, “Substituted 5-(haloalkyl)-5-hydroxy-isoxazoles for Combating Phytopathogenic Fungi” (BASF SE, priority 2017, published 2021):
Some of these results come from one statement about several compounds together.

Experiments:
Type in all cases: in vivo
Phakopsora pachyrhizi [1] = assay: Curative control of soy bean rust on soy beans (glass house trial 3); conditions: 300 ppm, untreated plants 100% diseased leaf area
Phakopsora pachyrhizi [2] = assay: Protective control of soy bean rust on soy beans, inoculation 1 day after spraying (glass house trial 2); conditions: 600 ppm, protective (1 day), untreated plants 90% diseased leaf area
Method: (§1) Spray solutions were prepared in several steps. A mixture was prepared of acetone and/or dimethylsulfoxide and the wetting agent/emulsifier Wettol, which is based on ethoxylated alkylphenoles, in a relation (volume) solvent-emulsifier of 99 to 1 was added to 25 mg of the compound to give a total of 5 ml. Water was then added to a total volume of 100 ml. This stock solution was diluted with the described solvent-emulsifier-water mixture to the given concentration.
2. Protective Control of Soy Bean Rust on Soy Beans Caused by Phakopsora pachyrhizi
Leaves of pot-grown soy bean seedlings were sprayed to run-off with an aqueous suspension, containing the concentration of active ingredient or their mixture as described below. The plants were allowed to air-dry. The trial plants were cultivated for 1 day in a greenhouse chamber at 23 to 27° C. and a relative humidity between 60 and 80%.Then the plants were inoculated with spores of Phakopsora pachyrhizi. To ensure the success the artificial inoculation, the plants were transferred to a humid chamber with a relative humidity of about 95% and 20 to 24° C. for 24 hours. The trial plants were cultivated for fourteen days in a greenhouse chamber at 23 to 27° C. and a relative humidity between 60 and 80%. The extent of fungal attack on the leaves was visually assessed as % diseased leaf area.

Puccinia recondita = assay: Preventative control of brown rust on wheat (glass house trial 6); conditions: 300 ppm, preventative (inoculation 7 days after spraying), untreated plants 80% diseased leaf area
Method: as §1
6. Preventative Control of Brown Rust on Wheat Caused by Puccinia recondita
The first two developed leaves of pot-grown wheat seedling were sprayed to run-off with an aqueous suspension, containing the concentration of active ingredient or their mixture as described below. Seven days later the plants were inoculated with spores of Puccinia recondita. To ensure the success the artificial inoculation, the plants were transferred to a humid chamber without light and a relative humidity of 95 to 99% and 20 to 24° C. for 24 hours. Then the trial plants were cultivated for 6 days in a greenhouse chamber at 20 to 24° C. and a relative humidity between 65 and 70%. The extent of fungal attack on the leaves was visually assessed as % diseased leaf area.

Phakopsora pachyrhizi [3] = assay: Curative control of soy bean rust on soy beans (glass house trial 1); conditions: 600 ppm
Phakopsora pachyrhizi [4] = assay: Protective control of soy bean rust on soy beans, inoculation 2 days after spraying (glass house trial 4); conditions: protective (2 days), untreated plants 90% diseased leaf area
Sclerotinia sclerotiorum = assay: Preventative fungicidal control of rape stem rot on soy beans (glass house trial 5); conditions: 600 ppm, soy bean, untreated plants 100% diseased leaf area
Method: as §1
5. Preventative Fungicidal Control of Rape Stem Rot on Soy Beans Caused by (Sclerotinia scierotiorum
Young seedlings of soy beans were grown in pots. These plants were sprayed to run-off with an aqueous suspension, containing the concentration of active ingredient or mixture mentioned in the table below. The next day the treated plants were inoculated: Rye and millet grains were infected with Sclerotinia sclerotiorum. After the infection the grains were air dried for a week. The grains were powdered with a mixer. A small amount of powder was brought onto the soy bean (leaves). Then the trial plants were cultivated for 7 days in a greenhouse chamber at 23° C. and a relative humidity between 80 an 85%. The extent of fungal attack on the leaves was visually assessed with a classification method: 0, 33, 50, 67 and 100% disease of leaf area and stem.

[5] = untreated plants 90% diseased leaf area
[6] = untreated plants 100% diseased leaf area

| SMILES | diseased leaf area (Phakopsora pachyrhizi [2]) | diseased leaf area (Phakopsora pachyrhizi [3]; [5]) | diseased leaf area (Phakopsora pachyrhizi [4]; 300 ppm) | diseased leaf area (Phakopsora pachyrhizi [3]; [6]) | other results |
| --- | --- | --- | --- | --- | --- |
| CN(C)C(=O)c1ccc(C2=NOC(O)(C(F)(F)F)C2)cc1 (stereo not shown) [Ex-1] | at most 1% | at most 15% | at most 1% | – | diseased leaf area (Phakopsora pachyrhizi [1]): at most 2%; diseased leaf area (Puccinia recondita): at most 16% |
| CN(C(=O)c1ccc(C2=NOC(O)(C(F)(F)F)C2)cc1)c1ccccc1 (stereo not shown) [Ex-2] | – | – | at most 1% | at most 3% | – |
| O=C(NCc1ccc(C2=NOC(O)(C(F)(F)F)C2)cc1)c1ccccc1 (stereo not shown) [Ex-3] | at most 1% | at most 15% | at most 1% | – | – |
| O=C(NCc1ccc(C2=NOC(O)(C(F)(F)F)C2)cc1)C1CC1 (stereo not shown) [Ex-4, N-[[4-[5-hydroxy-5-(trifluoromethyl)-4H-isoxazol-3-yl]phenyl]methyl]cyclopropanecarboxamide] | at most 1% | at most 15% | – | – | – |
| O=C(Nc1ccccc1)c1ccc(C2=NOC(O)(C(F)(F)F)C2)cc1 (stereo not shown) [Ex-7, 4-[5-Hydroxy-5-(trifluoromethyl)-4H-isoxazol-3-yl]-N-phenyl-benzamide] | at most 1% | at most 15% | at most 1% | – | diseased leaf area (Phakopsora pachyrhizi [1]): at most 2%; diseased leaf area (Puccinia recondita): at most 16%; diseased leaf area (Sclerotinia sclerotiorum): at most 1% |
| O=C(Nc1ccc(C2=NOC(O)(C(F)(F)F)C2)cc1)c1ccccc1 (stereo not shown) [Ex-8] | at most 1% | at most 15% | at most 1% | – | diseased leaf area (Sclerotinia sclerotiorum): at most 1% |
| O=C(Nc1ccc(C2=NOC(O)(C(F)(F)F)C2)cc1)C1CC1 (stereo not shown) [Ex-10] | at most 1% | at most 15% | at most 1% | – | diseased leaf area (Sclerotinia sclerotiorum): at most 1% |
| COC1(C(F)(F)F)CC(c2ccc(CN(C)C(=O)C3CC3)cc2)=NO1 (stereo not shown) [Ex-13] | – | – | – | at most 3% | – |
| CC(=O)OC1(C(F)(F)F)CC(c2ccc(CN(C)C(=O)C3CC3)cc2)=NO1 (stereo not shown) [Ex-15] | – | – | – | at most 3% | – |
| CC(=O)OC1(C(F)(F)F)CC(c2ccc(CNC(=O)C3CC3)cc2)=NO1 (stereo not shown) [Ex-18] | – | – | – | at most 3% | – |
| COC1(C(F)(F)F)CC(c2ccc(CNC(=O)C3CC3)cc2)=NO1 (stereo not shown) [Ex-19] | – | – | – | at most 3% | – |
| CNC(=O)c1ccc(C2=NOC(OC(=O)C(C)C)(C(F)(F)F)C2)cc1 (stereo not shown) [Ex-23] | – | – | – | – | diseased leaf area (Phakopsora pachyrhizi [4]; 63 ppm): at most 4% |
| O=C(Nc1ccccc1)c1ccc(C2=NOC(OC(=O)C3CCCO3)(C(F)(F)F)C2)cc1 (stereo not shown) [Ex-28] | – | – | – | at most 3% | – |
| CCOCC(=O)OC1(C(F)(F)F)CC(c2ccc(C(=O)NC)cc2)=NO1 (stereo not shown) [Ex-33] | – | – | – | – | diseased leaf area (Phakopsora pachyrhizi [4]; 63 ppm): at most 4% |
| CNC(=O)c1ccc(C2=NOC(OCOC(=O)CC(C)C)(C(F)(F)F)C2)cc1 (stereo not shown) [Ex-34] | – | – | – | – | diseased leaf area (Phakopsora pachyrhizi [4]; 63 ppm): at most 4% |
| CNC(=O)c1ccc(C2=NOC(OCOC(=O)C(C)C)(C(F)(F)F)C2)cc1 (stereo not shown) [Ex-36] | – | – | – | – | diseased leaf area (Phakopsora pachyrhizi [4]; 63 ppm): at most 4% |
| CC(C)CC(=O)OCOC1(C(F)(F)F)CC(c2ccc(C(=O)Nc3ccccc3)cc2)=NO1 (stereo not shown) [Ex-40] | – | – | – | at most 3% | – |
| CNC(=O)c1ccc(C2=NOC(OC(=O)C3CC3)(C(F)(F)F)C2)cc1 (stereo not shown) [Ex-42] | – | – | – | at most 3% | – |
